In patent US10450346B2, “Immunotherapy against several tumors of the blood, in particular chronic lymphoid leukemia (CLL)” (Immatics biotechnologies GmbH, priority 2014, dated 2019):

B1: DEAD (Asp-Glu-Ala-Asp) box polypeptide 46 (protein, UniProt Q7L014 2-1031, looked up)
Probable ATP-dependent RNA …: GRESRHYRKRSASRGRSGSRSRSRSPSDKRSKRGDDRRSRSRDRDRRRERSRSRDKRRSRSRDRKRLRRSRSRERDRSRERRRSRSRDRRRSRSRSRGRRSRSSSPGNKSKKTENRSRSKEKTDGGESSKEKKKDKDDKEDEKEKDAGNFDQNKLEEEMRKRKERVEKWREEQRKKAMENIGELKKEIEEMKQGKKWSLEDDDDDEDDPAEAEKEGNEMEGEELDPLDAYMEEVKEEVKKFNMRSVKGGGGNEKKSGPTVTKVVTVVTTKKAVVDSDKKKGELMENDQDAMEYSSEEEEVDLQTALTGYQTKQRKLLEPVDHGKIEYEPFRKNFYVEVPELAKMSQEEVNVFRLEMEGITVKGKGCPKPIKSWVQCGISMKILNSLKKHGYEKPTPIQTQAIPAIMSGRDLIGIAKTGSGKTIAFLLPMFRHIMDQRSLEEGEGPIAVIMTPTRELALQITKECKKFSKTLGLRVVCVYGGTGISEQIAELKRGAEIIVCTPGRMIDMLAANSGRVTNLRRVTYVVLDEADRMFDMGFEPQVMRIVDNVRPDRQTVMFSATFPRAMEALARRILSKPIEVQVGGRSVVCSDVEQQVIVIEEEKKFLKLLELLGHYQESGSVIIFVDKQEHADGLLKDLMRASYPCMSLHGGIDQYDRDSIINDFKNGTCKLLVATSVAARGLDVKHLILVVNYSCPNHYEDYVHRAGRTGRAGNKGYAYTFITEDQARYAGDIIKALELSGTAVPPDLEKLWSDFKDQQKAEGKIIKKSSGFSGKGFKFDETEQALANERKKLQKAALGLQDSDDEDAAVDIDEQIESMFNSKKRVKDMAAPGTSSVPAPTAGNAEKLEIAKRLALRINAQKNLGIESQDVMQQATNAILRGGTILAPTVSAKTIAEQLAEKINAKLNYVPLEKQEEERQDGGQNESFKRYEEELEINDFPQTARWKVTSKEALQRISEYSEAAITIRGTYFPPGKEPKEGERKIYLAIESANELAVQKAKAEITRLIKEELIRLQNSYQPTNKGRYKVL
notes: LiTAA source protein
B2: ribonucleotide reductase M2 B (TP53 inducible) (protein, UniProt Q7LG56 1-351, looked up)
Ribonucleoside-diphosphate …: MGDPERPEAAGLDQDERSSSDTNESEIKSNEEPLLRKSSRRFVIFPIQYPDIWKMYKQAQASFWTAEEVDLSKDLPHWNKLKADEKYFISHILAFFAASDGIVNENLVERFSQEVQVPEARCFYGFQILIENVHSEMYSLLIDTYIRDPKKREFLFNAIETMPYVKKKADWALRWIADRKSTFGERVVAFAAVEGVFFSGSFAAIFWLKKRGLMPGLTFSNELISRDEGLHCDFACLMFQYLVNKPSEERVREIIVDAVKIEQEFLTEALPVGLIGMNCILMKQYIEFVADRLLVELGFSKVFQAENPFDFMENISLEGKTNFFEKRVSEYQRFAVMAETTDNVFTLDADF
notes: LiTAA source protein
B3: hematopoietic SH2 domain containing (protein, UniProt Q96JZ2 1-352, looked up)
Hematopoietic SH2 …: MTEAGKLPLPLPPRLDWFVHTQMGQLAQDGVPEWFHGAISREDAENLLESQPLGSFLIRVSHSHVGYTLSYKAQSSCCHFMVKLLDDGTFMIPGEKVAHTSLDALVTFHQQKPIEPRRELLTQPCRQKDPANVDYEDLFLYSNAVAEEAACPVSAPEEASPKPVLCHQSKERKPSAEMNRITTKEATSSCPPKSPLGETRQKLWRSLKMLPERGQRVRQQLKSHLATVNLSSLLDVRRSTVISGPGTGKGSQDHSGDPTSGDRGYTDPCVATSLKSPSQPQAPKDRKVPTRKAERSVSCIEVTPGDRSWHQMVVRALSSQESKPEHQGLAEPENDQLPEEYQQPPPFAPGYC
notes: LiTAA source protein
B4: endoplasmic reticulum protein 44 (protein, UniProt Q9BS26 30-406, looked up)
Endoplasmic reticulum …: EITSLDTENIDEILNNADVALVNFYADWCRFSQMLHPIFEEASDVIKEEFPNENQVVFARVDCDQHSDIAQRYRISKYPTLKLFRNGMMMKREYRGQRSVKALADYIRQQKSDPIQEIRDLAEITTLDRSKRNIIGYFEQKDSDNYRVFERVANILHDDCAFLSAFGDVSKPERYSGDNIIYKPPGHSAPDMVYLGAMTNFDVTYNWIQDKCVPLVREITFENGEELTEEGLPFLILFHMKEDTESLEIFQNEVARQLISEKGTINFLHADCDKFRHPLLHIQKTPADCPVIAIDSFRHMYVFGDFKDVLIPGKLKQFVFDLHSGKLHREFHHGPDPTDTAPGEQAQDVASSPPESSFQKLAPSEYRYTLLRDRDEL
notes: LiTAA source protein
B5: cyclin-dependent kinase 14 (protein, UniProt O94921 1-469, looked up)
Cyclin-dependent kinase 14: MCDLIEPQPAEKIGKMKKLRRTLSESFSRIALKKDDTTFDEICVTKMSTRNCQGMDSVIKPLDTIPEDKKVRVQRTQSTFDPFEKPANQVKRVHSENNACINFKTSSTGKESPKVRRHSSPSSPTSPKFGKADSYEKLEKLGEGSYATVYKGKSKVNGKLVALKVIRLQEEEGTPFTAIREASLLKGLKHANIVLLHDIIHTKETLTLVFEYVHTDLCQYMDKHPGGLHPDNVKLFLFQLLRGLSYIHQRYILHRDLKPQNLLISDTGELKLADFGLARAKSVPSHTYSNEVVTLWYRPPDVLLGSTEYSTCLDMWGVGCIFVEMIQGVAAFPGMKDIQDQLERIFLVLGTPNEDTWPGVHSLPHFKPERFTLYSSKNLRQAWNKLSYVNHAEDLASKLLQCSPKNRLSAQAALSHEYFSDLPPRLWELTDMSSIFTVPNVRLQPEAGESMRAFGKNNSYGKSLSNSKH
notes: LiTAA source protein
B6: methyltransferase like 7A (protein, UniProt Q9H8H3 30-244, looked up)
Thiol S-methyltransferase …: WICKKWFPYFLVRFTVIYNEQMASKKRELFSNLQEFAGPSGKLSLLEVGCGTGANFKFYPPGCRVTCIDPNPNFEKFLIKSIAENRHLQFERFVVAAGENMHQVADGSVDVVVCTLVLCSVKNQERILREVCRVLRPGGAFYFMEHVAAECSTWNYFWQQVLDPAWHLLFDGCNLTRESWKALERASFSKLKLQHIQAPLSWELVRPHIYGYAVK
notes: LiTAA source protein
B7: elongator acetyltransferase complex subunit 3 (protein, UniProt Q9H9T3 1-547, looked up)
Elongator complex protein 3: MRQKRKGDLSPAELMMLTIGDVIKQLIEAHEQGKDIDLNKVKTKTAAKYGLSAQPRLVDIIAAVPPQYRKVLMPKLKAKPIRTASGIAVVAVMCKPHRCPHISFTGNICVYCPGGPDSDFEYSTQSYTGYEPTSMRAIRARYDPFLQTRHRIEQLKQLGHSVDKVEFIVMGGTFMALPEEYRDYFIRNLHDALSGHTSNNIYEAVKYSERSLTKCIGITIETRPDYCMKRHLSDMLTYGCTRLEIGVQSVYEDVARDTNRGHTVKAVCESFHLAKDSGFKVVAHMMPDLPNVGLERDIEQFTEFFENPAFRPDGLKLYPTLVIRGTGLYELWKSGRYKSYSPSDLVELVARILALVPPWTRVYRVQRDIPMPLVSSGVEHGNLRELALARMKDLGIQCRDVRTREVGIQEIHHKVRPYQVELVRRDYVANGGWETFLSYEDPDQDILIGLLRLRKCSEETFRFELGGGVSIVRELHVYGSVVPVSSRDPTKFQHQGFGMLLMEEAERIAREEHGSGKIAVISGVGTRNYYRKIGYRLQGPYMVKMLK
notes: LiTAA source protein

These molecules were tested on primary CLL samples (PBMC from CLL patients), HLA class I ligands (assay: HLA class I ligandome analysis by LC-MS/MS (frequency of HLA restricted presentation)). Conditions: CLL patient HLA class I ligandomes (n = 30).
Parameters: species or system human

| Molecule | Number of positive CLLs |
| --- | --- |
| B1 | 7 |
| B2 | 7 |
| B3 | 7 |
| B4 | 7 |
| B5 | 12 |
| B6 | 7 |
| B7 | 7 |

Same assay, conditions: source protein (LiTAA) representation in CLL patient HLA class I ligandomes (n = 30)

| Molecule | Number of positive CLLs (frequency [%]) [%] |
| --- | --- |
| B1 | 23.3 |
| B2 | 23.3 |
| B3 | 23.3 |
| B4 | 23.3 |
| B5 | 40.0 |
| B6 | 23.3 |
| B7 | 23.3 |
